We go through 6 compounds from the supplement of paper PMC4604168 (melanoma cell lines).

The other results are listed elsewhere or left out. Single values are uncertain, as repeats are few or missing.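 Cells were imaged in 1,536-well plates, and nuclei stained with an antibody against cleaved PARP were counted against all DNA-stained nuclei to give the apoptosis fraction. Screening doses were chosen to leave most cells alive, and resting and induced cleaved-PARP levels differ strongly between cell lines.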

This assay relates to IPC-298. Put plainly: cleaved PARP positive nuclei fraction relative to DMSO control; melanoma cells; higher = more apoptosis. Particulars: library dose: low library concentration; 72 h.
Take `CN(C)S(=O)(=O)c1ccc2c(c1)/C(=C/c1cc3c([nH]1)CCCC3)C(=O)N2` + COc1cc2ncnc(Nc3ccc(Oc4ccccc4)cc3)c2cc1OC [SrcI1] (first compound 0.4 µM, partner dose 2 µM): the “cleaved PARP positive nuclei fraction” value amounted to 176%.
With `NCC(=O)Nc1ccc(-n2nc(C(F)(F)F)cc2-c2ccc3c(ccc4ccccc43)c2)cc1` + Cn1cc(/C=C2\C(=O)Nc3cccnc32)c2ccccc21 [GW441756] (first compound 1 µM, partner dose 0.4 µM), the “cleaved PARP positive nuclei fraction” value was found to be 28.5%.
For `O=C(Nc1ccccc1)c1cc([N+](=O)[O-])ccc1Cl` + Oc1cc(-c2nc(-c3ccccc3)[nH]c2-c2ccncc2)ccc1Cl [L779450] (first compound 2 µM, partner dose 0.2 µM), the “cleaved PARP positive nuclei fraction” value stood at 125%.
For `O=C1NC(=O)/C(=C/c2ccc(-c3ccc(F)cc3O)o2)S1` + c1cc(-c2cnn3cc(-c4ccc(OCCN5CCCCC5)cc4)cnc23)ccn1 [Dorsomorphin] (first compound 1 µM, partner dose 0.4 µM), the “cleaved PARP positive nuclei fraction” value was determined as 42.9%.
`COC(=O)c1sccc1S(=O)(=O)Nc1ccc(Nc2ccccc2)cc1OC` + COc1ccc(COc2ccc(Cc3cnc(N)nc3N)cc2OC)cc1 [GW2580] (first compound 1 µM, partner dose 1 µM): the “cleaved PARP positive nuclei fraction” value is 167%.
As for `COc1cc2c(Oc3ccc4[nH]c(C)cc4c3F)ncnc2cc1OCCCN1CCCC1` [cediranib] + CCN(CC)CCCCNc1ncc2cc(-c3cc(OC)cc(OC)c3)c(NC(=O)NC(C)(C)C)nc2n1 [PD173074] (first compound 0.4 µM, partner dose 0.1 µM), the “cleaved PARP positive nuclei fraction” value stood at 25.7%.
